In paper PMC10318405:
Results are given in words; binding and its absence hold for the method and conditions named. Some binding calls cover weakened binding; strength is not graded here. Tags and fused reporters may be left off the sequences shown.

Target: T1, untagged mouse ASC (ASC specks) (mouse) (UniProt Q9EPB4)
T1 sequence: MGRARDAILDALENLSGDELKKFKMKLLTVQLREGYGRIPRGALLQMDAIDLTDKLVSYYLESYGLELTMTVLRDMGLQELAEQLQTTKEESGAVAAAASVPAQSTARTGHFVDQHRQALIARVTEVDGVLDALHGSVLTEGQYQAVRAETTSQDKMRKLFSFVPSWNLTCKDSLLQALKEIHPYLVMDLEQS
Assay: staining of fixed, permeabilized cells with soluble fluorescent protein (recruitment assay); HEK293 cells with untagged mouse ASC specks fixed with 4% formaldehyde, permeabilized with 0.1% Triton X-100, incubated 30 min with soluble caspase-1 CARD-EGFP (1:50 in PBS) or ASC-RFP (1:5 in PBS) from cytosolic extracts; fluorescence of specks measured by microscopy; cells unstimulated or stimulated with hypotonic solution (90 mOsm) or nigericin before fixation

- binding: binds
B1: mouse caspase-1 CARD domain tagged with EGFP (domain or fragment, UniProt P29452 1-91)
chain: MADKILRAKRKQFINSVSIGTINGLLDELLEKRVLNQEEMDKIKLANITAMDKARDLCDHVSKKGPQASQIFITYICNEDCYLAGILELQS
